{
  "source": "the supplement of paper PMC8728848",
  "experiment_in_all_cases": "glycan array binding signal (z-score within array); higher = stronger binding",
  "settings_in_all_cases": "glycan notation: IUPAC condensed, linker removed",
  "key": {"[1]": {"molecular_target": "Neu5Ac(a2-6)GlcNAc(b1-4)GlcNAc(b1-4)GlcNAc", "outline": "(§1)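 The binding signal is a Z-score computed within each array and averaged over linkers. Arrays of the same protein sequence at different concentrations or buffers were also averaged together. Data originate from 3228 arrays in the Consortium for Functional Glycomics database, kept only where the protein sequence was available.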"}, "Neu5Ac(a2-8)Neu5Ac": {"molecular_target": "Neu5Ac(a2-8)Neu5Ac", "outline": "as §1"}, "[2]": {"molecular_target": "Neu5Ac(a2-8)Neu5Ac(a2-3)Gal(b1-3)GalNAc(b1-4)[Neu5Ac(a2-3)]Gal(b1-4)Glc", "outline": "as §1"}, "[3]": {"molecular_target": "Neu5Ac(a2-8)Neu5Ac(a2-3)Gal(b1-3)GalNAc(b1-4)[Neu5Ac(a2-8)Neu5Ac(a2-3)]Gal(b1-4)Glc", "outline": "as §1"}, "[4]": {"molecular_target": "Neu5Ac(a2-8)Neu5Ac(a2-3)Gal(b1-4)Glc", "outline": "as §1"}, "[5]": {"molecular_target": "Neu5Ac(a2-8)Neu5Ac(a2-3)Gal(b1-4)GlcNAc", "outline": "as §1"}, "[6]": {"molecular_target": "Neu5Ac(a2-8)Neu5Ac(a2-3)[Gal(b1-3)GalNAc(b1-4)]Gal(b1-4)Glc", "outline": "as §1"}, "[7]": {"molecular_target": "Neu5Ac(a2-8)Neu5Ac(a2-3)[GalNAc(b1-4)]Gal(b1-4)Glc", "outline": "as §1"}, "[8]": {"molecular_target": "Neu5Ac(a2-8)Neu5Ac(a2-8)Neu5Ac", "outline": "as §1"}, "[9]": {"molecular_target": "Neu5Ac(a2-8)Neu5Ac(a2-8)Neu5Ac(a2-3)Gal(b1-4)Glc", "outline": "as §1"}, "[10]": {"molecular_target": "Neu5Ac(a2-8)Neu5Ac(a2-8)Neu5Ac(a2-3)[Gal(b1-3)GalNAc(b1-4)]Gal(b1-4)Glc", "outline": "as §1"}, "[11]": {"molecular_target": "Neu5Ac(a2-8)Neu5Ac(a2-8)Neu5Ac(a2-3)[GalNAc(b1-4)]Gal(b1-4)Glc", "outline": "as §1"}, "[12]": {"molecular_target": "Neu5Ac(a2-8)Neu5Ac(a2-8)Neu5Ac(a2-8)Neu5Ac(a2-3)[GalNAc(b1-4)]Gal(b1-4)Glc", "outline": "as §1"}, "[13]": {"molecular_target": "Neu5Ac(a2-8)Neu5Gc(a2-3)Gal(b1-4)GlcNAc", "outline": "as §1"}, "[14]": {"molecular_target": "Neu5Ac(b2-6)Gal(b1-4)GlcNAc", "outline": "as §1"}, "Neu5Ac(b2-6)GalNAc": {"molecular_target": "Neu5Ac(b2-6)GalNAc", "outline": "as §1"}, "[15]": {"molecular_target": "Neu5Ac9Ac(a2-3)Gal(b1-3)GlcNAc", "outline": "as §1"}, "[16]": {"molecular_target": "Neu5Ac9Ac(a2-3)Gal(b1-4)GlcNAc", "outline": "as §1"}, "[17]": {"molecular_target": "Neu5Ac9Ac(a2-6)Gal(b1-4)GlcNAc", "outline": "as §1"}, "[18]": {"molecular_target": "Neu5Gc(a2-3)Gal(b1-3)GlcNAc", "outline": "as §1"}, "[19]": {"molecular_target": "Neu5Gc(a2-3)Gal(b1-3)[Fuc(a1-4)]GlcNAc", "outline": "as §1"}, "Neu5Gc(a2-3)Gal(b1-4)Glc": {"molecular_target": "Neu5Gc(a2-3)Gal(b1-4)Glc", "outline": "as §1"}, "[20]": {"molecular_target": "Neu5Gc(a2-3)Gal(b1-4)GlcNAc", "outline": "as §1"}, "[21]": {"molecular_target": "Neu5Gc(a2-3)Gal(b1-4)GlcNAc(b1-3)Gal(b1-4)GlcNAc(b1-2)Man(a1-3)[Neu5Gc(a2-3)Gal(b1-4)GlcNAc(b1-3)Gal(b1-4)GlcNAc(b1-2)Man(a1-6)]Man(b1-4)GlcNAc(b1-4)GlcNAc", "outline": "as §1"}, "[22]": {"molecular_target": "Neu5Gc(a2-3)Gal(b1-4)[Fuc(a1-3)]GlcNAc", "outline": "as §1"}, "[23]": {"molecular_target": "Neu5Gc(a2-6)Gal(b1-4)GlcNAc", "outline": "as §1"}, "Neu5Gc(a2-6)GalNAc": {"molecular_target": "Neu5Gc(a2-6)GalNAc", "outline": "as §1"}, "[24]": {"molecular_target": "Neu5Gc(a2-8)Neu5Ac(a2-3)Gal(b1-4)GlcNAc", "outline": "as §1"}, "[25]": {"molecular_target": "Neu5Gc(a2-8)Neu5Gc(a2-3)Gal(b1-4)GlcNAc", "outline": "as §1"}, "[26]": {"molecular_target": "Neu5Gc(a2-8)Neu5Gc(a2-3)Gal(b1-4)GlcNAc(b1-3)Gal(b1-4)GlcNAc", "outline": "as §1"}, "[27]": {"molecular_target": "Neu5Gc(a2-8)Neu5Gc(a2-6)Gal(b1-4)GlcNAc", "outline": "as §1"}, "[28]": {"molecular_target": "Neu5Gc(b2-6)Gal(b1-4)GlcNAc", "outline": "as §1"}},
  "note": "The other results are listed elsewhere or left out.",
  "data": [
    {"binder": "HA-61200 (Pseudomonas aeruginosa), Q02SP8_PSEAB (protein) MNKCYALVWNVSQGCWNVVSEGSRRRGKPAGAKAAIASVLALLGATALAPAYALPSGGTVVGGSANGEIHLSGGNSLSVNQKVDKLIANWDSFSVAAGERVIFNQPSSSSIALNRVIGTKASDIQGRIDANGQVFLVNPNGVLFGRGAQVNVGGLVASTLDITDAEFNGNSSRYRFTGPSTNGVLNHGGAITAAEGGSIALLGAQVDNRGTVLAQMGGVGLGAGSDLTLNFDGNKLLDIRVDAGVANALASNGGLLKADGGRVLMAARTANALLNTVVNSQGAIEARSLRGKNGRIVLDG", "values": [
      {"measurement": "glycan array binding signal (z-score)", "setting": "[1]", "value": -0.803},
      {"measurement": "glycan array binding signal (z-score)", "setting": "Neu5Ac(a2-8)Neu5Ac", "value": -0.291},
      {"measurement": "glycan array binding signal (z-score)", "setting": "[2]", "value": -0.398},
      {"measurement": "glycan array binding signal (z-score)", "setting": "[3]", "value": -0.215},
      {"measurement": "glycan array binding signal (z-score)", "setting": "[4]", "value": -0.588},
      {"measurement": "glycan array binding signal (z-score)", "setting": "[5]", "value": -0.089},
      {"measurement": "glycan array binding signal (z-score)", "setting": "[6]", "value": 0.374},
      {"measurement": "glycan array binding signal (z-score)", "setting": "[7]", "value": 0.462},
      {"measurement": "glycan array binding signal (z-score)", "setting": "[8]", "value": -0.598},
      {"measurement": "glycan array binding signal (z-score)", "setting": "[9]", "value": 0.107},
      {"measurement": "glycan array binding signal (z-score)", "setting": "[10]", "value": -0.075},
      {"measurement": "glycan array binding signal (z-score)", "setting": "[11]", "value": 0.378},
      {"measurement": "glycan array binding signal (z-score)", "setting": "[12]", "value": 1.17},
      {"measurement": "glycan array binding signal (z-score)", "setting": "[13]", "value": -0.854},
      {"measurement": "glycan array binding signal (z-score)", "setting": "[14]", "value": 0.6},
      {"measurement": "glycan array binding signal (z-score)", "setting": "Neu5Ac(b2-6)GalNAc", "value": -1.09},
      {"measurement": "glycan array binding signal (z-score)", "setting": "[15]", "value": -0.912},
      {"measurement": "glycan array binding signal (z-score)", "setting": "[16]", "value": 0.347},
      {"measurement": "glycan array binding signal (z-score)", "setting": "[17]", "value": -0.256},
      {"measurement": "glycan array binding signal (z-score)", "setting": "[18]", "value": -0.838},
      {"measurement": "glycan array binding signal (z-score)", "setting": "[19]", "value": 0.421},
      {"measurement": "glycan array binding signal (z-score)", "setting": "Neu5Gc(a2-3)Gal(b1-4)Glc", "value": -0.015},
      {"measurement": "glycan array binding signal (z-score)", "setting": "[20]", "value": -0.785},
      {"measurement": "glycan array binding signal (z-score)", "setting": "[21]", "value": 0.033},
      {"measurement": "glycan array binding signal (z-score)", "setting": "[22]", "value": -0.117},
      {"measurement": "glycan array binding signal (z-score)", "setting": "[23]", "value": -0.584},
      {"measurement": "glycan array binding signal (z-score)", "setting": "Neu5Gc(a2-6)GalNAc", "value": -0.811},
      {"measurement": "glycan array binding signal (z-score)", "setting": "[24]", "value": -0.361},
      {"measurement": "glycan array binding signal (z-score)", "setting": "[25]", "value": -0.346},
      {"measurement": "glycan array binding signal (z-score)", "setting": "[26]", "value": -0.132},
      {"measurement": "glycan array binding signal (z-score)", "setting": "[27]", "value": -0.263},
      {"measurement": "glycan array binding signal (z-score)", "setting": "[28]", "value": 1.25}
    ]}
  ]
}
